{"source": "patent US8318697B2", "about": "“Prophylactic and therapeutic treatment of infectious and other diseases with mono- and disaccharide-based compounds” (Corixa Corporation, priority 2000, dated 2012)", "test_system": "P. carinii", "assay": "Protection against P. carinii infection in anti-CD4 treated (immunocompromised) mice, lung impression smear score", "type": "in vivo", "details": "pulmonary delivery", "method": "Mice were pretreated with L3T4 anti-CD4 antibody for a minimum of 2 weeks (2 injections/week, 0.2 mg/injection) or until the peripheral CD4 count was reduced by at least about 50%.\nAn aqueous formulation was prepared containing 1 mg/ml 3-O-deacylated monophosphoryl lipid A and 108 μg/ml of the surfactant DPPC in water. The formulation was administered intratracheally via a small cannula at −24 hours and then twice a week for the remainder of the study. The concentrations administered are indicated below in Table 1. One million P. carinii were inoculated trans-tracheally at day 0. Twice-weekly treatments were continued for 7 weeks, lungs were removed and impression smears made. Slides were stained with Giemsa and silver and scored for the presence of P. carinni as follows.", "data": [{"substance": "3-O-deacylated monophosphoryl lipid A [MPL]", "values": [{"measurement": "expression of CD11b or CD69 on spleen cells", "result": "negative expression of CD11b or CD69"}]}]}
